Results reported in PMC10552648.
Results are given in words; binding and its absence hold for the method and conditions named. Binding seen in cells or lysates may run through a third protein. Some entries that bind do so weakly or less than the wild type. Tags and fused reporters may be left off the sequences shown.

Target: FLAG-p62 WT (human) (UniProt Q13501)
Assay: co-IP; HA-ZDHHC19 and FLAG-p62 co-expressed; FLAG-p62 IP in HEK293T cells, HA-ZDHHC19 IP in NRK cells; lysis buffer 50 mM Tris-HCl pH 7.5, 150 mM NaCl, 1% NP-40; protein A/G magnetic beads, 4°C overnight

B1: HA-ZDHHC19 (enzyme, UniProt Q810M5 1-347)
chain: MPFLKDAVTLVKEPQQLPSIPLSWFPSSVFAAFNVTLLLFLSGLFFGFPCRWLVQNGEWAFPAITGPLFILTFFSLVSLNFSDPGILHRGSTKEDPMTVHVVRVNQRAFRLEWCPKCLFHRPPRTYHCPWCNICVEDFDHHCKWVNNCIGHRNFRLFMLLVLSLCLYSGALLVTCLTFLFRTRHLPFSLDKGMAILVAVPAAGFLIPLFLLLLIQALSVSRAESSYESKCRYHPEYNPFDQGFAKNWYLAMFAPLGPNYMSEVVCLQRPVGTAWIQEKTKPSPPRRPKHCRPGPPGPQHQPRRVPGKGPPGSGEAAALQEMRRLPASVEKSPGGPRQPTAEPAAGDP
Q: B1 was tested. Which binding did it give?
A: Its binding is “binds”.
